Reference: the supplement of paper PMC4635364
Counter-ions that a name gives are not always drawn. Some of the results follow. Repeats in this data set agree poorly, so a single value says little.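 Cells: ReNCell VM human fetal ventral-midbrain neural progenitors, differentiated mitogen-free. Blinded raters compared doublecortin-stained (early neurons) or tyrosine hydroxylase-stained (dopaminergic neurons) images with untreated wells, where 0 means no change. After repeats and both raters were averaged, compounds scoring 2 or above became hits for retesting.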

tested on: ReNCell VM; test: neuronal differentiation score (DCX+ cell fraction vs untreated, manual image score) (score (-3 to 3)); higher = more neuronal differentiation; settings: library: LOPAC; 2 uM; 2 weeks

Neuronal differentiation score, inactive:
CCCC(C(=O)OCCN(CC)CC)(c1ccccc1)c1ccccc1 [SKF-525A hydrochloride] 0
CNCCc1cnc(CCC(c2ccccc2)c2ccccc2)[nH]1 [N-Methylhistaprodifen dioxalate salt] 0
CN(C)CCC(c1ccc(Br)cc1)c1ccccn1 (single isomer, unassigned; (+)) [(+)-Brompheniramine maleate] 0
Nc1ncnc2c1ncn2[C@@H]1O[C@@H]2COP(=O)(O)O[C@H]2[C@H]1O [Adenosine 3',5'-cyclic monophosphate] 0
Nc1c2c(nc3ccccc13)CCCC2O (stereo not drawn) [Hydroxytacrine maleate] 0

same assay, conditions: library: Prestwick; 2 uM; 2 weeks

Neuronal differentiation score, inactive:
CCC1NC(=O)c2cc(S(N)(=O)=O)c(Cl)cc2N1 (stereo not drawn) [Quinethazone] 0
Cc1nccn1CC1CCc2c(c3ccccc3n2C)C1=O (stereo not drawn) [Ondansetron Hydrochloride] 0
N[C@@H](Cc1cc(I)c(Oc2ccc(O)c(I)c2)c(I)c1)C(=O)O [Liothyronine] 0
CC(C)(C)NC[C@@H](O)COc1cccc2c1CCCC2=O [(+) -Levobunolol hydrochloride] 0
CCOC1O[C@H]([C@@H](COCc2ccccc2)OCc2ccccc2)[C@H](OCc2ccccc2)[C@H]1O (stereo partly drawn) [Tribenoside] 0
NS(=O)(=O)c1cc2c(cc1Cl)NC(C(Cl)Cl)NS2(=O)=O (stereo not drawn) [Trichlormethiazide] 0
Cc1ccc(Cl)c(Nc2ccccc2C(=O)O)c1Cl [Meclofenamic acid sodium salt monohydrate] 0

same assay, conditions: library: Spectrum; 2 uM; 2 weeks

Neuronal differentiation score, inactive:
Cc1cc(-n2c(=O)[nH]c(=O)n(C)c2=O)ccc1Oc1ccc(SC(F)(F)F)cc1 0
CN1CCC(=C2c3ccccc3CCc3sccc32)CC1 0
C=C1CC[C@H](O)C/C1=C/C=C1\CCC[C@]2(C)[C@@H]([C@H](C)/C=C/[C@H](C)C(C)C)CC[C@@H]12 1
CN1CCN(CC/C=C2/c3ccccc3Sc3ccc(S(=O)(=O)N(C)C)cc32)CC1 0
COc1cc(/C=C/C(=O)O)ccc1O 0
Cn1c(=O)c2c(ncn2CC(O)CO)n(C)c1=O (stereo not drawn) 0
Cc1cc2nc3c(=O)[nH]c(=O)nc-3n(C[C@H](O)[C@H](O)[C@H](O)CO)c2cc1C 0
O=S(=O)(O)c1cc(N=C=S)ccc1/C=C/c1ccc(N=C=S)cc1S(=O)(=O)O 0
CC(=O)[C@H]1CC[C@H]2[C@@H]3CC=C4C[C@@H](OC(=O)CCC(=O)O)CC[C@]4(C)[C@H]3CC[C@]12C 0
O=c1c(O)c(-c2ccc(O)c(O)c2)oc2c(O[C@@H]3O[C@H](CO)[C@@H](O)[C@H](O)[C@H]3O)c(O)cc(O)c12 0
CN1C(C(=O)Nc2ccccn2)=C(O)c2sc(Cl)cc2S1(=O)=O 0
CCn1cc(C(=O)O)c(=O)c2cc(F)c(N3CCNCC3)cc21 0
COc1cc(/C=C/C(=O)N2CCC=CC2=O)cc(OC)c1OC 0
C1CCN2C[C@@H]3C[C@@H](CN4CCCC[C@@H]34)[C@H]2C1 0
N[C@@H](Cc1cc(I)c(Oc2cc(I)c(O)c(I)c2)c(I)c1)C(=O)O 0
COCCCOc1cc(C[C@@H](C[C@H](N)[C@@H](O)C[C@H](C(=O)NCC(C)(C)C(N)=O)C(C)C)C(C)C)ccc1OC 0
COc1ccc(O)cc1 0
Cc1cc(OC(=O)c2c(C)cc(O)cc2O)cc(O)c1C(=O)O 0
CCN(CCO)CCCC(C)Nc1ccnc2cc(Cl)ccc12 (stereo not drawn) 0
Nc1nc(N)c2nc(-c3ccccc3)c(N)nc2n1 0

2 consecutive entries already listed, quoted:
Neuronal differentiation score, inactive:
CCN(CCO)CCCC(C)Nc1ccnc2cc(Cl)ccc12 (stereo not drawn) 0
Nc1nc(N)c2nc(-c3ccccc3)c(N)nc2n1 0

same assay, conditions: library: Tocriscreen; 2 uM; 2 weeks

Neuronal differentiation score, inactive:
COC(=O)[C@@H]1CC2=CC(=O)CC[C@]2(C)[C@@]23O[C@@H]2C[C@@]2(C)[C@@H](CC[C@@]24CCC(=O)O4)[C@H]13 [Eplerenone] 0
CS(=O)(=O)CCNCc1nc(-c2ccc3ncnc(Nc4ccc(OCc5cccc(F)c5)c(Cl)c4)c3c2)cs1 0
NC(C(=O)O)c1cc(O)cc(O)c1 (racemic) 0
O=C1NC(=O)c2cc(Nc3ccc(F)cc3)c(Nc3ccc(F)cc3)cc21 0
CCCCC1CCC(c2nc(-c3ccncc3)no2)CC1 (stereo not drawn) 0
COc1cc(N)c(Cl)cc1C(=O)CCC1CCN(CCNS(C)(=O)=O)CC1 0

Part of the list above in order of molar mass, falling:
Neuronal differentiation score, inactive:
CS(=O)(=O)CCNCc1nc(-c2ccc3ncnc(Nc4ccc(OCc5cccc(F)c5)c(Cl)c4)c3c2)cs1 0
CCCCC1CCC(c2nc(-c3ccncc3)no2)CC1 (stereo not drawn) 0
NC(C(=O)O)c1cc(O)cc(O)c1 (racemic) 0

tested on: ReNCell VM; test: dopaminergic neuron differentiation score (TH+ cell fraction vs untreated, manual image score) (score (0 to 3)); higher = more TH+ dopaminergic neuron differentiation; settings: library: LOPAC; 2 uM; 4 weeks; BDNF 10 ng/ml + GDNF 10 ng/ml

Dopaminergic neuron differentiation score, inactive:
CCCC(C(=O)OCCN(CC)CC)(c1ccccc1)c1ccccc1 [SKF-525A hydrochloride] 0
CNCCc1cnc(CCC(c2ccccc2)c2ccccc2)[nH]1 [N-Methylhistaprodifen dioxalate salt] 0
CN(C)CCC(c1ccc(Br)cc1)c1ccccn1 (single isomer, unassigned; (+)) [(+)-Brompheniramine maleate] 0
Nc1ncnc2c1ncn2[C@@H]1O[C@@H]2COP(=O)(O)O[C@H]2[C@H]1O [Adenosine 3',5'-cyclic monophosphate] 0
Nc1c2c(nc3ccccc13)CCCC2O (stereo not drawn) [Hydroxytacrine maleate] 0
